No constants are given. Whether binding was seen depends on the method and setting. In cells and extracts the contact can be indirect. Some binding calls cover weakened binding; strength is not graded here.
Assays:
[1] = molecular target: T1, PHF6 (human (endogenous in THP-1)) (UniProt Q8IWS0); assay: co-IP; endogenous proteins, THP-1 nuclear protein extracts; agarose-conjugated anti-PHF6 or anti-RUNX1 antibody, IgG control; 4 °C overnight, five washes of 1x PBS with 1% NP-40; western blot
T1 sequence: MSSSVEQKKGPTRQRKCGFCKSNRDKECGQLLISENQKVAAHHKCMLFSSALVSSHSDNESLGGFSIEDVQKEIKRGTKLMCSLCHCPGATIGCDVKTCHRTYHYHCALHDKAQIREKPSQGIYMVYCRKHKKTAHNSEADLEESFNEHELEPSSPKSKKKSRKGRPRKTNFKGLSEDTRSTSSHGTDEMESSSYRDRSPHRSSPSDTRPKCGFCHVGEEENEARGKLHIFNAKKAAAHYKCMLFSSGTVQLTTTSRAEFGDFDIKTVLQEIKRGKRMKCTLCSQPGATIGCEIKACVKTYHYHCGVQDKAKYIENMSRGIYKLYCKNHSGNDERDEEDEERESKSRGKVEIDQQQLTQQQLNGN

Protein sequences, listed by entry. Tags and fused reporters are not part of them.
UniProt Q01196: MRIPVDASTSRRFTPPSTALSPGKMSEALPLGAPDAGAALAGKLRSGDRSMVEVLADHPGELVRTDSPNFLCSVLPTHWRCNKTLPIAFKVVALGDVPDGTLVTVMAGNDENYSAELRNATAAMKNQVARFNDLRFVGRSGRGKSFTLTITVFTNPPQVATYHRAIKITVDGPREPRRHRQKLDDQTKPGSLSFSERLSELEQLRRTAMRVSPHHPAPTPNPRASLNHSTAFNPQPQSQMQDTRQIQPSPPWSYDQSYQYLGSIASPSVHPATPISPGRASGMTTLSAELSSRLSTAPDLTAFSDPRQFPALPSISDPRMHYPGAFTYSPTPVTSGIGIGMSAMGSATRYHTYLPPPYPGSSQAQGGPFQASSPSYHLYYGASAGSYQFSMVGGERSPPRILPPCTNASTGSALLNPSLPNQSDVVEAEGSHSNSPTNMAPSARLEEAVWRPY
UniProt Q03347: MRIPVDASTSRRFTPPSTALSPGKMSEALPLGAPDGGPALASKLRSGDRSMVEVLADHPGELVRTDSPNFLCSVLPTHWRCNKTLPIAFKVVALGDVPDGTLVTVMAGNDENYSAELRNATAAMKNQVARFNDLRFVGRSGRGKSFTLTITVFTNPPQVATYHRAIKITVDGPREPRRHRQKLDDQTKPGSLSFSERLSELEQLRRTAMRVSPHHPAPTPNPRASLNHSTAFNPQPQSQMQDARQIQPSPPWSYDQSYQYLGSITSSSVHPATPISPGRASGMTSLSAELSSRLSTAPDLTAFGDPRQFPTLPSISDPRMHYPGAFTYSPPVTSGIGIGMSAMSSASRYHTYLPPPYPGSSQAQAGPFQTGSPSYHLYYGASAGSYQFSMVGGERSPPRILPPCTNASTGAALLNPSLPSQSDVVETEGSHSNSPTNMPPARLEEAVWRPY

[2] = molecular target: T2, Phf6 (mouse (endogenous in spleen and bone marrow cells)) (UniProt Q9D4J7); assay: co-IP; reciprocal IPs of endogenous Phf6 and Runx1, mouse spleen and bone marrow protein extracts; IgG control; western blot
T2 sequence: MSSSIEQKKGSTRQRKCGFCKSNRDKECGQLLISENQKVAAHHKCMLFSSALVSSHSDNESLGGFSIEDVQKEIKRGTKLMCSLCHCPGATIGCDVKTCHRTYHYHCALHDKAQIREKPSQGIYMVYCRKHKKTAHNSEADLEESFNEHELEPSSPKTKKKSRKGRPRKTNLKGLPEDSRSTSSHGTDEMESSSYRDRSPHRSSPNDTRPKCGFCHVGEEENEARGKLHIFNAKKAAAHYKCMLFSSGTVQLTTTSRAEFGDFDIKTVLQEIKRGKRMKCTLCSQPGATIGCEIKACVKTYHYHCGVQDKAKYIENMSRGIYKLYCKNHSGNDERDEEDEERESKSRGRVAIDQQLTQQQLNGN

binding [1]	binding [2]	Substance
binds	–	RUNX1 (from UniProt Q01196 1-453)
–	binds	Runx1 (from UniProt Q03347 1-451)
